Results taken from publication PMC4024641.

T1: Rmn1-13×myc (S. pombe) (UniProt Q9USP9)
T1 sequence: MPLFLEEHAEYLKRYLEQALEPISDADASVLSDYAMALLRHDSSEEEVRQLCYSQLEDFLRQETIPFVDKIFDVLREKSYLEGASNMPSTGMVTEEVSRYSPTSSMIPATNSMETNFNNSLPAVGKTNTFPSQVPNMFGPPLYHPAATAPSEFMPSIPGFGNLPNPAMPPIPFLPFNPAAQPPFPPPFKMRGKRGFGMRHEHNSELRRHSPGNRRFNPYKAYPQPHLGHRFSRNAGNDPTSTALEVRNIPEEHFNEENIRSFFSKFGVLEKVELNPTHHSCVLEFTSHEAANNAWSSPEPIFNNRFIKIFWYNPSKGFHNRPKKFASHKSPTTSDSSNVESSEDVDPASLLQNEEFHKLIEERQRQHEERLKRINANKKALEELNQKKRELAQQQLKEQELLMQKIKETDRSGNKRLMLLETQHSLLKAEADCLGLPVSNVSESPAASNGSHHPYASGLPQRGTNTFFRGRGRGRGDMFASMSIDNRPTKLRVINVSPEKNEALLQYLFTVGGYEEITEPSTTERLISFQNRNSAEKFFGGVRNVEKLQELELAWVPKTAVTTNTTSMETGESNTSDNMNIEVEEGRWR

T2: Ars2-3×FLAG (S. pombe) (UniProt O94326)
T2 sequence: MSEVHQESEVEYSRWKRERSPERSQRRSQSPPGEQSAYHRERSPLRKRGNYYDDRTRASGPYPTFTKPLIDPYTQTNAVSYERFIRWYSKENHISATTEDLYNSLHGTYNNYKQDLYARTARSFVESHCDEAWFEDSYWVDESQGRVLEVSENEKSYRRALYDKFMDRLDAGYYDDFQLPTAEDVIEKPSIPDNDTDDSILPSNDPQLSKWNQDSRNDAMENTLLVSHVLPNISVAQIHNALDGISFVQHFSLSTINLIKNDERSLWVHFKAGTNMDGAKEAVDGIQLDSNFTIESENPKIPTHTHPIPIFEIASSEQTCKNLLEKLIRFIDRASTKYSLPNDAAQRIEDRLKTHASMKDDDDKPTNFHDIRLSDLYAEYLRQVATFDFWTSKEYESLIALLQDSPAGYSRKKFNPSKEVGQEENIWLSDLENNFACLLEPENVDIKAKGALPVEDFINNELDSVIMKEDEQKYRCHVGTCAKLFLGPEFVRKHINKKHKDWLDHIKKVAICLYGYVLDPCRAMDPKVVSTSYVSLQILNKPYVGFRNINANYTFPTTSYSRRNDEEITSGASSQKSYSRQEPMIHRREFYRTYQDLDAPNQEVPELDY

T3: Mtl1-3×FLAG (S. pombe) (UniProt O13799)
T3 sequence: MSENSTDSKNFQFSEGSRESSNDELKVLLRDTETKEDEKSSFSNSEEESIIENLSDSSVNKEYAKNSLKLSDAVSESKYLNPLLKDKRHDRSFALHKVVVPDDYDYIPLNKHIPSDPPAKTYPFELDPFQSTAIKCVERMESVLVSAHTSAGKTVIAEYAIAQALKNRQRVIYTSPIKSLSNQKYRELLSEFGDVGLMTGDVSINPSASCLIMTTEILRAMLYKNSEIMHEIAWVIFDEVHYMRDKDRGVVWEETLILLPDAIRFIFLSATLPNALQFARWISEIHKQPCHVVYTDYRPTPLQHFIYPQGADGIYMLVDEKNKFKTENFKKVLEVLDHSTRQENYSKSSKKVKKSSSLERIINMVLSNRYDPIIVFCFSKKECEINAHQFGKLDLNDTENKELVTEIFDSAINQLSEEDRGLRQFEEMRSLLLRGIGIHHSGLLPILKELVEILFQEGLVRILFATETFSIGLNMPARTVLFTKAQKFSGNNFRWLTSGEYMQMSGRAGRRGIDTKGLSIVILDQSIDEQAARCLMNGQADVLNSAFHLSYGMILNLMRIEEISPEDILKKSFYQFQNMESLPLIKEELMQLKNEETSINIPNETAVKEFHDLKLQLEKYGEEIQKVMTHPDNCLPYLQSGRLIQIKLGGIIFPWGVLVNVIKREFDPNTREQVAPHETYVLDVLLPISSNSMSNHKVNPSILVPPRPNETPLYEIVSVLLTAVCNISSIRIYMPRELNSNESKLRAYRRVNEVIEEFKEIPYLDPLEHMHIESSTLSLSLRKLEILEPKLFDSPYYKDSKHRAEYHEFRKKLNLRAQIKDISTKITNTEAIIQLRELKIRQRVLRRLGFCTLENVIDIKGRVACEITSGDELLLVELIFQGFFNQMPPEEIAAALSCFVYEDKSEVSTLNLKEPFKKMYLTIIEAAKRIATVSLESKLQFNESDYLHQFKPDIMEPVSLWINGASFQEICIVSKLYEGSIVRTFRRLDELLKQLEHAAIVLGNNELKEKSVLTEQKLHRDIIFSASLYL


What was measured:
Experiment in all cases: affinity purification with mass spectrometry; 3×FLAG- or 13×myc-tagged bait purified from S. pombe cell extract on α-FLAG (M2) or α-myc (9E10) antibody cross-linked to Protein G Dynabeads, 4°C for 3 h, IP buffer (20 mM HEPES pH 7.5, 100 mM NaCl, 5 mM MgCl2, 1 mM EDTA, 10% glycerol, 0.25% Triton X-100, 0.5 mM DTT); LC-MS/MS; Red1-3×FLAG also from iss10Δ, rmn1Δ and Mtl1 knockdown cells
[1] = biological target: T1, Rmn1-13×myc (S. pombe)
[2] = biological target: T2, Ars2-3×FLAG (S. pombe)
[3] = biological target: T3, Mtl1-3×FLAG (S. pombe)

| Binder | binding [1] | binding [2] | binding [3] |
| --- | --- | --- | --- |
| Mmi1 (protein, UniProt O74958 1-488) MSNTNFSTSRSSKSIPELPNLEALRSLWPPPSLNESGDTRSVWTTHTGEPVASSVLSTSGSNNFSSPLKRPAPESHDAPIGRRLMVDDPRLIKHGKYDFSRHCTDYGHSYEWPYFRSLRRESMLYHTSGSYPESQPPYSSYSTDAPHYYHAGSESSAYYDSRSRLHGIQPPPKRRTLSPPPRRLADPVVVGSSRYVEEEVYRRPPYTLASEVPSSASAYQAGYSSYPVRSSPQLSHEDTRHGIASSGSTRYPFVPANTRASHSPSLLEPYAHSLPSSVAPVGAYPEKSSYLLSNSSNDSASRKEKPKARASTPPPLNFSRASEHRNEKGERISMINPRVVLDENGISHRSRYFIMLCDNETAIAHAKKTSIWAVKKDSSKRISDAYKKASVYFIFVAQQTYNALGYAQVVSDLNSTELPFWSDSSHAGGVRIKWIKTCNLFSAEISEIVSHMDHGSEARDGMEMMYDEGSRLCTLINYAIMKRIGRDR | binds | binds | binds |
| Kap123 (protein, UniProt O60100 1-1067) MDAQFTLELTQLLFQSIAPDTTQITEATRALETKYLKEPGSLLSLFHIMGTCENPQVRQLAAIEARKLCHKYWSSVDADVQNQIRSNLLDITLKEPESIVRHAFGRVIAALAKLDLPEGKWNELSAFLVQATMDQNDSIREMAVYVLYSIAETVDLDNKLLLDFVNLFSQTITDSSRTVRVTSVQGLGAIAEVLESDDKKLLHAYRATLPGMLLVLQDVVQVGDVDASKQVFDVFNTFLIASGAIISKALGNIIEIITGIANSKQVDDEIRCMALSFIISCIRFKSRKLQALKLGKPLVLTLMEVATEETTDDIDEDCPARLALRSIDLLSTHLSPSQVFYPMFEAACAFSQSPQASYRKAALLSIGVAVEGSSESVAGNLPNIFPIIINGLCDNDMDVRQAALLALSQIAVEIPTEVSKHHAQLLPLVFELMSTQGVKVGKSACNCIDALLEGLDKSEISGYLPMLMERLVGLLEFSDTPDIKSCVAAAIGSAAFAAQDDFIPYFERTMASLSQCLHTTDDDEGYELRGTVMDTLGAIANAVGKQAFLPYTEQLIQLAYEGIQIDHSRLRECSFCFYAVLARVYKEEFAPFLEHIVPALFKSIDQDESDILSERIGAPTAEEISQLLDSVETNEEENDEELEKAMGVNSAIAMEKEIAADALGEICMYVGAPFTPYLEPTVEKLVACTTHFYEGVRKSALSSLWRCATTYYKVCNVPQWQPGLPLKVPVPDTVKNIFEAVRKCTFDTLEEEYEKTVATDILRNFAESIKTCGPVVLGDDYEKLCEVVMEVLQKQHIVQAGDVFDDDFEEEDIVSNEEVDDTEQDALLIDSACDVVIALAVALGGSFADSFKVFYPQIVKYYMSKNGNERAMAVACVGEVAGGIESAITPFTRDVFSLFMAALEDSEGEVRSNAAYSMGLLCQFSTEDLSSEYLNILQKLQPFFTQEVFRTALDNAIGCISRLILHNQNAIPVDQVLPIVFSKLPLKEDYLENAPLYHMILALYRQQNPCLVQHLGELIPVFASVLTGSPEQLNDELRSELLSMVKEIAPQYESVVSNYPQLVALLQ | binds |  |  |

More lines, now with the values ahead:

| binding [1] | binding [2] | binding [3] | Binder |
| --- | --- | --- | --- |
| binds | binds |  | Red1-3×FLAG (protein, UniProt Q9UTR8 1-712) MSRSINLDELRKKALESKKKNEEDESNDSDKEDGEISEDDPVIDQSNSVPPMKVPTFPEQIPQLPPFDRFPGTNANFFPFGAPFMLPPALMFGPNTVPFFPQTASSNKTFSKRKRSSENSFNNRNKAKSSETSDSSNTSQSFKENRALKDTATSRPLALSSDTSYQKSEKAKSEKSPFLSTSKNSDANYSKTTNQKEAEKAVSQLFEVGVRFNDFIAEGIEPSVVHTLFLKLGLDSSSASSQGSLTLSADKAARSAKLRKIDSNLSDTHILPGDNGTPTVLPERKNLISLPLLKQDDWLSSSKPFGSSTPNVVIEFDSDDDGDDFSNSKIEQSNLEKPPSNSENGLTMSRSDYLALLRNKEEEIRRMTKLILRLESNKKPYRSPTSAADMKLPSVPVAAVDNKSKTHLDTFEKVVDLSSKADFVEAGPSISSSGASSSAATTNSDTTEQILEAPWLRKTEQIAVVHEEHPAQIKKSEIDILNNLIEKEEGELTKYQTLVKSKTEILTQLYTRKKQLLEQQGKGNVACLPKESDLSMDSITEVSAQADENSSQILSSKTSNAPNGTTETDFEDKVPLVDYISPFYRFKSYRFNQQFVERVPLKYRSLTYSNKIEPMKVFCKYETTGGVCNDDHCEASHFRDIKMTDDEIIQDLSRYIEGNDEIEKESYKSGLDIVMKNTDENTDFVDVATRIVEYHNLWKSERMTIPVAKVSI |
| binds |  | binds | Red5-3×FLAG (protein, UniProt O74823 1-376) MNEQQLLENIASLAGAINQYKNEKEPTQVLDAAKANKNTRSYPYSVSRNYSFILNKSNRSKSTAASPPYVIPSTSSNADDANKEPEKQSTSDYVSRKNRHMQLIKKNILEHDLQARKANLESYRAKLEKEYKTLAENKIQQRLSDGTKQLVTIDGLQYITGVSDTKWLEFVSAKGQCPKYLYWNNKSYLLKKKRFLKEVGNSPSAVYCRYYNANGICGKGAACRFVHEPTRKTICPKFLNGRCNKAEDCNLSHELDPRRIPACRYFLLGKCNNPNCRYVHIHYSENAPICFEFAKYGFCELGTSCKNQHILQCTDYAMFGSCNNPQCSLYHGAVSADVPEQTEAPISKTAGSINPEDSGSEIGSNSLESNLDFISV |
| binds |  |  | Rsm1 (protein, UniProt O94506 1-296) MSFPTDMETNEILDQLDKIDERNEDILLKSLKASKCTYKPWSREEFLRRLLTYRSRWAYVNDPQIGEINCCLNGWLCESNNILVCDVCRNKINLTALQQVDAENDSLNELPEKTKERLEVSLKEEHQDNCLWRLHKFPPDIYHLSVSAELVQVGRRFNSLSTRLVSTHLPEEMTLKRLEKVANKIRVDWEKEDAAVLLGIALTGWSEQVPGRLYVCNYCHRRLGVWNLQSEGQDFDVLEEHKKSCPWVIPQPFTDLLGWQQIFELLCKESIFQSTTKTMDVSQYTDYTFSLLQGLR |
|  |  | binds | Nab2 (protein, UniProt O13713 1-307) MTTLLETPGYSEKLHDSIEKKLSEYGWGEEAASLADFVLVMLSNGKTQTEINEELVDLIGSDFDTSFSLWLFNQIEELEKSKNASVESVSKIDEIDFIEKESTDKSQQSFSVPETSIQPQSSQTPNITSLREEKELPTGRVGQKLKLTSQKQRFNPMAASFNYSKSVMPAAKRALTQTQEVPLCKYADKCSRANCIFAHPTPAAAPGEGMVLSSEMCASGKECKAADCVKGHPSPATVTTLPPFMSMSTIPIPCKYKPCLNPACRFIHPTKSRNMTWRPPSKTEETSLSERSFAVNESEEQLHVPSV |

No constants are given. Whether binding was seen depends on the method and setting. In cells and extracts the contact can be indirect. A yes stands for co-enrichment or nearness to the bait. Other partners may have been found. Sequences can lack the tags named with a protein.
